Literature values in patent publication US20240226000A9, “TRANSDERMAL PENETRANT FORMULATIONS FOR ADMINISTRATION OF MEDICAMENTS” (Dyve Biosciences, Inc., priority 2021, published 2024).
At least one compound was matched to its structure with a doubt left.

Settings: table of Class 2 and Class 4 API examples; cited from earlier work

O=C(O)c1cc(-c2ccc(F)cc2F)ccc1O [Difunisal] and CC1COc2c(N3CCN(C)CC3)c(F)cc3c(=O)c(C(=O)O)cn1c23 (stereo not shown) [Ofloxacin] are the same in “BCS Class” value: 2 for the first, 2 for the second.

CC(C)OC(=O)C(C)(C)Oc1ccc(C(=O)c2ccc(Cl)cc2)cc1 [Fenofibrate] and CCC(C)n1ncn(-c2ccc(N3CCN(c4ccc(OCC5COC(Cn6cncn6)(c6ccc(Cl)cc6Cl)O5)cc4)CC3)cc2)c1=O (stereo not shown) [Itraconazole] are the same in “BCS Class” value: 2 for the first, 2 for the second.

COC(=O)C1=C(C)NC(C)=C(C(=O)OC)C1c1ccccc1[N+](=O)[O-] [Nifedipine] and CO[C@H]1C[C@@H]2CC[C@@H](C)[C@@](O)(O2)C(=O)C(=O)N2CCCC[C@H]2C(=O)O[C@H]([C@H](C)C[C@@H]2CC[C@@H](O)[C@H](OC)C2)CC(=O)[C@H](C)/C=C(\C)[C@@H](O)[C@@H](OC)C(=O)[C@H](C)C[C@H](C)/C=C/C=C/C=C/1C [Sirolimus] are the same in “BCS Class” value: 2 for the first, 2 for the second.

For CCc1nc(N)nc(N)c1-c1ccc(Cl)cc1 [Pyrimethamine], the “BCS Class” value is given as 2/4.

Same assay, conditions: table of kinase inhibitor examples; cited from earlier work

CC#CC(=O)N1CCC[C@H]1c1nc(-c2ccc(C(=O)Nc3ccccn3)cc2)c2c(N)nccn12 [Acalabrutinib] and C=CC(=O)N1CCC([C@@H]2CCNc3c(C(N)=O)c(-c4ccc(Oc5ccccc5)cc4)nn32)CC1 [Zanubrutinib] are the same in “BCS Class” value: 2 for the first, 2 for the second.

Compared with CNC(=O)c1ccccc1Sc1ccc2c(/C=C/c3ccccn3)n[nH]c2c1 [Axitinib], CC(C)NC(=O)COc1cccc(-c2nc(Nc3ccc4[nH]ncc4c3)c3ccccc3n2)c1 [Belumosudil] is higher in “BCS Class” value: 2 for the first, 4 for the second.

Going from COc1cc(Nc2c(C#N)cnc3cc(OCCCN4CCN(C)CC4)c(OC)cc23)c(Cl)cc1Cl [Bosutinib] to COc1cc2c(Nc3ccc(Br)cc3F)ncnc2cc1OCC1CCN(C)CC1 [Vandetanib], the “BCS Class” value falls from 4 to 2.

COc1cc2nccc(Oc3ccc(NC(=O)C4(C(=O)Nc5ccc(F)cc5)CC4)cc3)c2cc1OC [Cabozantinib] and Cc1ccc(Nc2nccc(N(C)c3ccc4c(C)n(C)nc4c3)n2)cc1S(N)(=O)=O [Pazopanib] are the same in “BCS Class” value: 2 for the first, 2 for the second.

Compared with Cc1nc(Nc2ncc(C(=O)Nc3c(C)cccc3Cl)s2)cc(N2CCN(CCO)CC2)n1 [Dasatinib], Cn1cnc2c(F)c(Nc3ccc(Br)cc3Cl)c(C(=O)NOCCO)cc21 [Selumetinib] is higher in “BCS Class” value: 2 for the first, 4 for the second.

Compared with C[C@H](Nc1ncnc2nc[nH]c12)c1cc2cccc(Cl)c2c(=O)n1-c1ccccc1 [Duvelisib], CC(C)Oc1ccc(-c2nn([C@@H](C)c3oc4ccc(F)cc4c(=O)c3-c3cccc(F)c3)c3ncnc(N)c23)cc1F [Umbralisib] is lower in “BCS Class” value: 4 for the first, 2 for the second.

Compared with CCc1nc(C(N)=O)c(Nc2ccc(N3CCC(N4CCN(C)CC4)CC3)c(OC)c2)nc1NC1CCOCC1 [Gilteritinib], CC(=O)Nc1cccc(-n2c(=O)n(C3CC3)c(=O)c3c(Nc4ccc(I)cc4F)n(C)c(=O)c(C)c32)c1 [Trametinib] is lower in “BCS Class” value: 4 for the first, 2 for the second.

C[C@H]1Oc2cc(cnc2N)-c2c(nn(C)c2C#N)CN(C)C(=O)c2ccc(F)cc21 [Lorlatinib] and CCN(CC)CCNC(=O)c1c(C)[nH]c(/C=C2\C(=O)Nc3ccc(F)cc32)c1C [Sunitinib] are the same in “BCS Class” value: 4 for the first, 4 for the second.

Compared with CO[C@@H]1[C@H](N(C)C(=O)c2ccccc2)C[C@H]2O[C@]1(C)n1c3ccccc3c3c4c(c5c6ccccc6n2c5c31)C(=O)NC4 [Midostaurin], CCCS(=O)(=O)Nc1ccc(F)c(C(=O)c2c[nH]c3ncc(-c4ccc(Cl)cc4)cc23)c1F [Vemurafenib] is higher in “BCS Class” value: 2 for the first, 4 for the second.

Compared with NC(=O)c1cnc2[nH]ccc2c1N[C@@H]1[C@@H]2CC3C[C@H]1C[C@@](O)(C3)C2 [Peficitinib], CO[C@H]1C[C@@H]2CC[C@@H](C)[C@@](O)(O2)C(=O)C(=O)N2CCCC[C@H]2C(=O)O[C@H]([C@H](C)C[C@@H]2CC[C@@H](O)[C@H](OC)C2)CC(=O)[C@H](C)/C=C(\C)[C@@H](O)[C@@H](OC)C(=O)[C@H](C)C[C@H](C)/C=C/C=C/C=C/1C [Sirolimus] is lower in “BCS Class” value: 4 for the first, 2 for the second.

In the case of Cc1cnc(Nc2ccc(OCCN3CCCC3)cc2)nc1Nc1cccc(S(=O)(=O)NC(C)(C)C)c1 [Fedratinib], the “BCS Class” value is given as 2/4.
